Source: the supplement of paper PMC4604168 (melanoma cell lines)
The list shows a part of the results. Repeats are few or missing, and single values can be far off.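 Imaging used 1,536-well plates; nuclei positive for cleaved PARP by antibody were divided by total DNA-stained nuclei to yield the apoptosis fraction. Doses for screening kept most cells viable, and cell lines differ markedly in resting and induced cleaved-PARP levels.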

test system: C32; test: cleaved PARP positive nuclei fraction relative to DMSO control; melanoma cells; higher = more apoptosis; settings: library dose: low library concentration; 72 h

Row | Compound | cleaved PARP positive nuclei fraction [%]
1 | COc1ccc2c(c1)CCC1C2CCC2(C)C(NCCCCCCN3C(=O)C=CC3=O)CCC12 (stereo not given) + Oc1cc(-c2nc(-c3ccccc3)[nH]c2-c2ccncc2)ccc1Cl [L779450] (first compound 0.4 µM, partner dose 0.2 µM) | 39.9
2 | CN(C)S(=O)(=O)c1ccc2c(c1)/C(=C/c1cc3c([nH]1)CCCC3)C(=O)N2 + O=C(O)C(=O)Nc1sc2c(c1C(=O)O)CCNC2 [TCS401] (first compound 0.4 µM, partner dose 1.66667 µM) | 208
3 | COc1ccc(-c2ccc3c(N4CCOCC4)nc(N4C[C@@H](C)O[C@@H](C)C4)nc3n2)cc1CO + COc1cc(N2CCC(N3CCN(C)CC3)CC2)ccc1Nc1ncc(Cl)c(Nc2ccccc2S(=O)(=O)C(C)C)n1 [NVP-TAE684] (first compound 0.02 µM, partner dose 0.08 µM) | 74.9
4 | COc1cc2c(Oc3ccc4[nH]c(C)cc4c3F)ncnc2cc1OCCCN1CCCC1 [cediranib] + Oc1cc(-c2nc(-c3ccccc3)[nH]c2-c2ccncc2)ccc1Cl [L779450] (first compound 0.4 µM, partner dose 0.2 µM) | 247
5 | O=C(Nc1ccccc1)c1cc([N+](=O)[O-])ccc1Cl + Oc1cc(-c2nc(-c3ccccc3)[nH]c2-c2ccncc2)ccc1Cl [L779450] (first compound 2 µM, partner dose 0.2 µM) | 217
6 | O=C(Nc1ccccc1)c1cc([N+](=O)[O-])ccc1Cl + CCCCCCCCCCCC1=C(O)C(=O)C=C(O)C1=O [Embelin] (first compound 2 µM, partner dose 1.2 µM) | 36.9
7 | COc1ccc(-c2ccc3c(N4CCOCC4)nc(N4C[C@@H](C)O[C@@H](C)C4)nc3n2)cc1CO + CCCCCCCCCCCC1=C(O)C(=O)C=C(O)C1=O [Embelin] (first compound 0.02 µM, partner dose 1.2 µM) | 224
8 | Cn1cc(/C=C2\C(=O)Nc3cccnc32)c2ccccc21 + CCCCCCCCCCCC1=C(O)C(=O)C=C(O)C1=O [Embelin] (first compound 0.4 µM, partner dose 1.2 µM) | 126
9 | NCC(=O)Nc1ccc(-n2nc(C(F)(F)F)cc2-c2ccc3c(ccc4ccccc43)c2)cc1 + COc1ccc(-c2ccc3c(N4CCOCC4)nc(N4C[C@@H](C)O[C@@H](C)C4)nc3n2)cc1CO [KU0063794] (first compound 1 µM, partner dose 0.02 µM) | 94.8
10 | CCN(CC)CCCCNc1ncc2cc(-c3cc(OC)cc(OC)c3)c(NC(=O)NC(C)(C)C)nc2n1 + Oc1nc(-c2ccc(C(F)(F)F)cc2)nc2c1CSCC2 [XAV939] (first compound 0.1 µM, partner dose 2 µM) | 260
11 | O=C(O)c1ccc(-c2c[nH]c3ncc(-c4ccccc4)cc23)cc1C1CCCC1 + O=c1cc(-c2cccc3c2Sc2ccccc2S3)oc(N2CCOCC2)c1 [KU55933] (first compound 0.16 µM, partner dose 1 µM) | 49.6
12 | CCN(CC)CCCCNc1ncc2cc(-c3cc(OC)cc(OC)c3)c(NC(=O)NC(C)(C)C)nc2n1 + O=S(=O)(c1ccccc1)N(CC(F)(F)F)c1ccc(C(O)(C(F)(F)F)C(F)(F)F)cc1 [T0901317] (first compound 0.1 µM, partner dose 1.4 µM) | 65.9
13 | COc1ccc2c(c1)CCC1C2CCC2(C)C(NCCCCCCN3C(=O)C=CC3=O)CCC12 (stereo not given) + COc1ccc(-c2ccc3c(N4CCOCC4)nc(N4C[C@@H](C)O[C@@H](C)C4)nc3n2)cc1CO [KU0063794] (first compound 0.4 µM, partner dose 0.02 µM) | 49.6
14 | COc1cc2c(Oc3ccc4[nH]c(C)cc4c3F)ncnc2cc1OCCCN1CCCC1 [cediranib] + Oc1nc(-c2ccc(C(F)(F)F)cc2)nc2c1CSCC2 [XAV939] (first compound 0.4 µM, partner dose 2 µM) | 76.8
15 | COc1ccc(-c2ccc3c(N4CCOCC4)nc(N4C[C@@H](C)O[C@@H](C)C4)nc3n2)cc1CO + COc1ccc(COc2ccc(Cc3cnc(N)nc3N)cc2OC)cc1 [GW2580] (first compound 0.02 µM, partner dose 1 µM) | 127

Quoted from the results shown (2 entries):
Row | Compound | cleaved PARP positive nuclei fraction [%]
7 | COc1ccc(-c2ccc3c(N4CCOCC4)nc(N4C[C@@H](C)O[C@@H](C)C4)nc3n2)cc1CO + CCCCCCCCCCCC1=C(O)C(=O)C=C(O)C1=O [Embelin] (first compound 0.02 µM, partner dose 1.2 µM) | 224
8 | Cn1cc(/C=C2\C(=O)Nc3cccnc32)c2ccccc21 + CCCCCCCCCCCC1=C(O)C(=O)C=C(O)C1=O [Embelin] (first compound 0.4 µM, partner dose 1.2 µM) | 126
